Laboratory results: the supplement of paper PMC10849652
This is one part of the list.

By UniProt entry, the sequences of proteins in these tests, tags left out. Where a name states a change or a piece, a line headed by the entry shows the natural chain unless it says otherwise.
UniProt O75683: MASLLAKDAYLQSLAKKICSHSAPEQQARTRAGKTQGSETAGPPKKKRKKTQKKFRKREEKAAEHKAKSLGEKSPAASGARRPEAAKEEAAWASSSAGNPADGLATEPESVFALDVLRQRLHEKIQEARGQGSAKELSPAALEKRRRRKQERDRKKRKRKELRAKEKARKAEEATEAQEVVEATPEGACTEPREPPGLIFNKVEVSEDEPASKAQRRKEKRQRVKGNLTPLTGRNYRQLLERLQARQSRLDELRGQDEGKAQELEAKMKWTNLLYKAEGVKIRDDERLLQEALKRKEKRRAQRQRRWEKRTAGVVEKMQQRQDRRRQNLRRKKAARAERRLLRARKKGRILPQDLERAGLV
UniProt P08247, whole entry, looked up: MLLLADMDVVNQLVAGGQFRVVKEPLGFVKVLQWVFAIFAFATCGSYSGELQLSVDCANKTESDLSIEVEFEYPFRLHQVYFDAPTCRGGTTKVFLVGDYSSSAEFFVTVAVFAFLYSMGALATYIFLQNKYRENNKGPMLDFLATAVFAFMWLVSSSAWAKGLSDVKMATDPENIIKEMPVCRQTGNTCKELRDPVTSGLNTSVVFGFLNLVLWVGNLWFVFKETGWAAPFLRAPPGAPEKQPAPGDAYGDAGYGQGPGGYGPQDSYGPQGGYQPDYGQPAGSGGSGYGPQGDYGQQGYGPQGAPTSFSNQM
UniProt Q13277: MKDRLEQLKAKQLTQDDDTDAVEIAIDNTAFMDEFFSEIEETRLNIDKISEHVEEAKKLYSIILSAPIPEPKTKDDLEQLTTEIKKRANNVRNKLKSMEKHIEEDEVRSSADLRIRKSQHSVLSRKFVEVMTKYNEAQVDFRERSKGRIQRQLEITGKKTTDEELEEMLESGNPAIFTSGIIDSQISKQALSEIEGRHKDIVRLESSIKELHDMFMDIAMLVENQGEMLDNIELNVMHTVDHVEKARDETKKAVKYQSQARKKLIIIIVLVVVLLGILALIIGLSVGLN
UniProt P50225: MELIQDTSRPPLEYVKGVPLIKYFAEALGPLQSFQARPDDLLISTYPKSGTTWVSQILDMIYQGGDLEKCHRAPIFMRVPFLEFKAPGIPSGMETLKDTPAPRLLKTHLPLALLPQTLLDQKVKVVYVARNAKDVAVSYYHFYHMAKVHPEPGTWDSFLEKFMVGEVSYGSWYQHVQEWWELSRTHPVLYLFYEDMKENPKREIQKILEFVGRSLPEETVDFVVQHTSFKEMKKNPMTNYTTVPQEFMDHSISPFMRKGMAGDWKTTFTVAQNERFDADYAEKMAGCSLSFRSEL
UniProt Q5T5C0: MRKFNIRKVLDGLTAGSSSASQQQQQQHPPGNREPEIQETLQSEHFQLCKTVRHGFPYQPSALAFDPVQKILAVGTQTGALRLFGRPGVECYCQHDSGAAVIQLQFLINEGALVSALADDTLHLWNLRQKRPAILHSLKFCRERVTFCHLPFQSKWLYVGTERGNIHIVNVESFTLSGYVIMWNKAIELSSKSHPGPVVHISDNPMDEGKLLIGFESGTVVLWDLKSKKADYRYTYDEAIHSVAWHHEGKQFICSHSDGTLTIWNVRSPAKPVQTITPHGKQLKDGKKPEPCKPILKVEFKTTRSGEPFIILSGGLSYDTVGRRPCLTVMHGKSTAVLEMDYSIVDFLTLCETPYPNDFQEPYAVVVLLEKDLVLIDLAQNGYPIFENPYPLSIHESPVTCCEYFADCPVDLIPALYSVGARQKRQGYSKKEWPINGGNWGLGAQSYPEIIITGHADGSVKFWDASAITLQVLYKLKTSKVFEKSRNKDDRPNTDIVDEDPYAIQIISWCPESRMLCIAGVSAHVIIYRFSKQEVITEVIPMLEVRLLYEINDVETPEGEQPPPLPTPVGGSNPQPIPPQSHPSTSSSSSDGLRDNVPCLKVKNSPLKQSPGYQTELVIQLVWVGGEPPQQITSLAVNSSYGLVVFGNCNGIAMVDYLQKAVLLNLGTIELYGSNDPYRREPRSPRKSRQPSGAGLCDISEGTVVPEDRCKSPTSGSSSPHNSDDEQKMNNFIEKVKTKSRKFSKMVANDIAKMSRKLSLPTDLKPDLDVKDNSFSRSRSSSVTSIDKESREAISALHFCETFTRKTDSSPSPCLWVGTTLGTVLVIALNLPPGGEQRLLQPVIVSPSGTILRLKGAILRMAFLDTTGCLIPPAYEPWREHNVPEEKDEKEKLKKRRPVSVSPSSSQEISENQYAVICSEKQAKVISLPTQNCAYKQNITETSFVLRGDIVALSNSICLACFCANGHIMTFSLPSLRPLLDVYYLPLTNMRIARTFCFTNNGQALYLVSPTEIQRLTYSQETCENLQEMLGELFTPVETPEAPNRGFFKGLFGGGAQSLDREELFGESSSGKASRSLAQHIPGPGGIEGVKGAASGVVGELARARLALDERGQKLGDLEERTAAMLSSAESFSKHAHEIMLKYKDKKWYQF
UniProt Q8WUJ0: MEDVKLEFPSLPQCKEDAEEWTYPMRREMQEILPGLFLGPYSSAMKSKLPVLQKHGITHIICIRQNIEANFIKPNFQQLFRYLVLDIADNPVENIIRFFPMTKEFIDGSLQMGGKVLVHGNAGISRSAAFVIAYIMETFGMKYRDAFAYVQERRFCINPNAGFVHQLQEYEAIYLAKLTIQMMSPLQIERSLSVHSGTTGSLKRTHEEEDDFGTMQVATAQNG
UniProt O75410: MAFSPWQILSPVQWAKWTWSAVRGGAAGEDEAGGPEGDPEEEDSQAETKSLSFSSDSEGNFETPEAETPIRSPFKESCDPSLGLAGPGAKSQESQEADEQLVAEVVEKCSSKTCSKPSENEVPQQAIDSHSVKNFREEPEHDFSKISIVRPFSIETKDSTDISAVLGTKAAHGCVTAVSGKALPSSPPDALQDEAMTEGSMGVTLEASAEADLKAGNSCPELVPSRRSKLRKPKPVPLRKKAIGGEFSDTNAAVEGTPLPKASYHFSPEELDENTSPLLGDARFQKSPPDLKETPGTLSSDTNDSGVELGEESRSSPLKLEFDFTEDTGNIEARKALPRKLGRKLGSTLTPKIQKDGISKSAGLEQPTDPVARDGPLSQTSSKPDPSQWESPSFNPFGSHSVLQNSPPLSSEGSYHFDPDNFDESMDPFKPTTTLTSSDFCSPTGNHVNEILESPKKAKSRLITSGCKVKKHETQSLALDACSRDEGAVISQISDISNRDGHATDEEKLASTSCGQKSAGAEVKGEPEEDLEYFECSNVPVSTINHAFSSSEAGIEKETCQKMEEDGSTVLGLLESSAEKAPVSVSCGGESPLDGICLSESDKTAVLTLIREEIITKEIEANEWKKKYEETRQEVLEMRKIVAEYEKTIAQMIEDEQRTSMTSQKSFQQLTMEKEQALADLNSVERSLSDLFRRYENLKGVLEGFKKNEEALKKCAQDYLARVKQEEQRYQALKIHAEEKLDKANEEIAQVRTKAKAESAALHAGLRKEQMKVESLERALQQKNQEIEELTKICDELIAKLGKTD
UniProt Q9UJZ1: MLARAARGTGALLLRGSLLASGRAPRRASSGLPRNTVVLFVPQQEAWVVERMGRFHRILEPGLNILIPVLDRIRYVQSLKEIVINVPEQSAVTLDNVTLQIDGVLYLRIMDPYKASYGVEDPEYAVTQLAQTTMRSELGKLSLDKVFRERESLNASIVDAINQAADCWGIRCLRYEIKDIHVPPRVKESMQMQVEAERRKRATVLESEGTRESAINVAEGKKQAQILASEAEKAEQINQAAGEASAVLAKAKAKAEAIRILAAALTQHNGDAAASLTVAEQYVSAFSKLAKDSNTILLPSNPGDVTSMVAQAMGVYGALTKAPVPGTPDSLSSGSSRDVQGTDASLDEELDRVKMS
UniProt Q9Y2Z0: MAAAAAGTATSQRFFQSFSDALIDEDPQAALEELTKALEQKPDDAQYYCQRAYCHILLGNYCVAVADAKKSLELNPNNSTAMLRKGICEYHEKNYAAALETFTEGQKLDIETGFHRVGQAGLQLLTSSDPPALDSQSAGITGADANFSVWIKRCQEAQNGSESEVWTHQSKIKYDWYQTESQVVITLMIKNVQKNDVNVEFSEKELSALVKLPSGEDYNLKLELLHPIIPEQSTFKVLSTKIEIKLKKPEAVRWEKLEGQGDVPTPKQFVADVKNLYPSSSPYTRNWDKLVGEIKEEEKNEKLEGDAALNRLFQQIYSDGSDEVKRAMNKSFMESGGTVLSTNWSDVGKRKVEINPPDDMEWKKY
UniProt Q9NYJ8: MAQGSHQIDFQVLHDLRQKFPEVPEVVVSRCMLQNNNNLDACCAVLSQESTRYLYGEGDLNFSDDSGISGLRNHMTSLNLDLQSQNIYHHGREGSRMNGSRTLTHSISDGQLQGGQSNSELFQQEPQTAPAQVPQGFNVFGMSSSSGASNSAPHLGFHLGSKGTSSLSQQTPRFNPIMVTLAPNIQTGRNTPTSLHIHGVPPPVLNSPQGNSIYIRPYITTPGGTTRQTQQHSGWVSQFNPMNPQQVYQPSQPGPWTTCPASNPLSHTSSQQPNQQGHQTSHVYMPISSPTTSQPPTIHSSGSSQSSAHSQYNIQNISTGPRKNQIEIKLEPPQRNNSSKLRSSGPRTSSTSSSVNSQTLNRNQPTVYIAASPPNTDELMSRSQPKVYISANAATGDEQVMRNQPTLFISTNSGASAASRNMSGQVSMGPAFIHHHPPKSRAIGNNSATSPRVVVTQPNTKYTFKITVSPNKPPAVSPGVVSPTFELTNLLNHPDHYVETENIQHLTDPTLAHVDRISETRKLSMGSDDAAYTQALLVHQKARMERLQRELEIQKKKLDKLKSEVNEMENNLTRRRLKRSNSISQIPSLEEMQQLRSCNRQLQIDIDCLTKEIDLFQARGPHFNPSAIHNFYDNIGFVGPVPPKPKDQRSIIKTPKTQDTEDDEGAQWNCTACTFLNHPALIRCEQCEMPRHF
UniProt O43752: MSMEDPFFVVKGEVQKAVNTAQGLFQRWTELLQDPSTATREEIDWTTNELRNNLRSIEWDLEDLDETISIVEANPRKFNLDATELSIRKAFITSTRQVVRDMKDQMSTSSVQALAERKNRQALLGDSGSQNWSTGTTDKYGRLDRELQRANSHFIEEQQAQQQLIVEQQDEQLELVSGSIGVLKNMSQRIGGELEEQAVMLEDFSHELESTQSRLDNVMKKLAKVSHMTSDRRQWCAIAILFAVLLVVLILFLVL
UniProt Q16514: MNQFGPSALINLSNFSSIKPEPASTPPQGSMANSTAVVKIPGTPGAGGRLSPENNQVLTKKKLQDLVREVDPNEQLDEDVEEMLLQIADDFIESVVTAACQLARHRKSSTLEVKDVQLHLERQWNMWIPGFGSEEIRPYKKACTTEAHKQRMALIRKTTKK
UniProt Q9NZ72: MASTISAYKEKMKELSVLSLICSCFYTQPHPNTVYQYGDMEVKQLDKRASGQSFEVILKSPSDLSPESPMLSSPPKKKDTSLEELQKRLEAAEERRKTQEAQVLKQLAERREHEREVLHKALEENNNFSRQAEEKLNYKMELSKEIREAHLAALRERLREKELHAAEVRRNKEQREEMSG
UniProt Q1ZZU3: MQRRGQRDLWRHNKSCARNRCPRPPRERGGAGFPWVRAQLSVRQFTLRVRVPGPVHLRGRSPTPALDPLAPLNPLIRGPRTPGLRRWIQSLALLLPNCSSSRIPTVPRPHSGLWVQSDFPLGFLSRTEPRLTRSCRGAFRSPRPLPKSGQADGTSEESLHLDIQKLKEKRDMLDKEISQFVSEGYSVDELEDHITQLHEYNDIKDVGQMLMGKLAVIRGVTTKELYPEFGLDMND
UniProt Q12846: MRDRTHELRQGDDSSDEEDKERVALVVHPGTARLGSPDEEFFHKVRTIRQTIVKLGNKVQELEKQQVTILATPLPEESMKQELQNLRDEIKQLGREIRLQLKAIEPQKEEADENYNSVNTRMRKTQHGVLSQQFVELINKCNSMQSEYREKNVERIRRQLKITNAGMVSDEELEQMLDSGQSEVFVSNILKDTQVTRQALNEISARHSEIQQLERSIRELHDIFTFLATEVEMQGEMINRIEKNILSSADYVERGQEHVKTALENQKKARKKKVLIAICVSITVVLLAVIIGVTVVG
UniProt Q15831: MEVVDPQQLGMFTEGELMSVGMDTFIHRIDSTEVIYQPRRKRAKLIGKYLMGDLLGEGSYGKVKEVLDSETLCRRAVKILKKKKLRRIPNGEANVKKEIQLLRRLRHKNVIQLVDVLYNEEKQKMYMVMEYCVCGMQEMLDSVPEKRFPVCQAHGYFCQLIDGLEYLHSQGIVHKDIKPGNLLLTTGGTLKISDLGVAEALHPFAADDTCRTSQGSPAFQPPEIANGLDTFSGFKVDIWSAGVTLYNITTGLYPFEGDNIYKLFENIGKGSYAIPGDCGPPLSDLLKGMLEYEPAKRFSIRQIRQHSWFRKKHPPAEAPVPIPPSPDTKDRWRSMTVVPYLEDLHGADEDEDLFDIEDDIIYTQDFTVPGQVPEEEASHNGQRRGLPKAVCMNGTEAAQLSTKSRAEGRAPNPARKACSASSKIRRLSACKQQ
UniProt P61956, whole entry, looked up: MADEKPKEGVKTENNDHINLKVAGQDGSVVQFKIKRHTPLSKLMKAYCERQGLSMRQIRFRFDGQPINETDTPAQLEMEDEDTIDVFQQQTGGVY

What was measured:
Test in all cases: log2 fold change, soluble protein after heating vs DMSO (PISA); higher = thermal stabilisation; K562 lysate, 10 uM; active = over 0.2 and 3.5 SD of the protein, either way, in both replicates (recomputed)
lapatinib = compound: CS(=O)(=O)CCNCc1ccc(-c2ccc3ncnc(Nc4ccc(OCc5cccc(F)c5)c(Cl)c4)c3c2)o1 [lapatinib]
Method in brief: (§1)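 Quantification was by TMTpro 16plex LC-MS/MS with equalised channel sums, applied to the supernatant after 21,000xg for 90 min. Samples were crude K562 extract at 1 mg/mL protein in PBS pH 7.4 with 1 mM MgCl2, treated with 10 μM compound for 30 min, heated for 3 min across 48°C-58°C, pooled and brought to 0.5% NP-40 at 4°C. Values are log-two fold changes in thermal stability relative to solvent controls, from duplicates.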

pictilisib = compound: CS(=O)(=O)N1CCN(Cc2cc3nc(-c4cccc5[nH]ncc45)nc(N4CCOCC4)c3s2)CC1 [pictilisib]
Method in brief: as §1

crizotinib = compound: C[C@@H](Oc1cc(-c2cnn(C3CCNCC3)c2)cnc1N)c1c(Cl)ccc(F)c1Cl [crizotinib]
Method in brief: as §1

[1] = compound: C[C@H](C1=CC=C(C=C1)C(=O)NC2=C3C=CNC3=NC=C2)N
Method in brief: as §1

duvelisib = compound: C[C@H](Nc1ncnc2nc[nH]c12)c1cc2cccc(Cl)c2c(=O)n1-c1ccccc1 [duvelisib]
Method in brief: as §1

gandotinib = compound: Cc1cc(Nc2cc(CN3CCOCC3)c3nc(C)c(Cc4ccc(Cl)cc4F)n3n2)n[nH]1 [gandotinib]
Method in brief: as §1

tozasertib = compound: Cc1cc(Nc2cc(N3CCN(C)CC3)nc(Sc3ccc(NC(=O)C4CC4)cc3)n2)n[nH]1 [tozasertib]
Method in brief: as §1

doramapimod = compound: Cc1ccc(-n2nc(C(C)(C)C)cc2NC(=O)Nc2ccc(OCCN3CCOCC3)c3ccccc23)cc1 [doramapimod]
Method in brief: as §1

bafetinib = compound: Cc1ccc(NC(=O)c2ccc(CN3CC[C@H](N(C)C)C3)c(C(F)(F)F)c2)cc1Nc1nccc(-c2cncnc2)n1 [bafetinib]
Method in brief: as §1

[2] = compound: Cc1cccc(CC(=O)N2CCc3c2ccc(-c2cn(C)c4ncnc(N)c24)c3F)n1
Method in brief: as §1

Row | Target | log2 fold change (lapatinib) | log2 fold change (pictilisib) | log2 fold change (crizotinib) | log2 fold change [1] | log2 fold change (duvelisib) | log2 fold change (gandotinib) | log2 fold change (tozasertib) | log2 fold change (doramapimod) | log2 fold change (bafetinib) | log2 fold change [2]
1 | SURF6 (UniProt O75683) | inactive: -0.021 | inactive: 0.002 | inactive: -0.006 | inactive: 0 | inactive: 0.029 | inactive: 0.004 | inactive: 0.004 | inactive: 0.023 | inactive: -0.03 | inactive: -0.034
2 | STK3 isoform 2 (UniProt Q13188) | inactive: -0.045 | inactive: 0.02 | inactive: 0.299 | inactive: -0.029 | inactive: -0.058 | active: 0.468 | inactive: 0.224 | inactive: -0.035 | inactive: 0.001 | inactive: 0.122
3 | SYP (UniProt P08247) | inactive: 0.006 | inactive: 0.057 | inactive: -0.011 | inactive: 0.043 | inactive: 0.003 | inactive: 0.049 | inactive: 0.072 | inactive: -0.075 | inactive: -0.039 | inactive: -0.094
4 | STX3 (UniProt Q13277) | inactive: -0.001 | inactive: -0.012 | inactive: 0.123 | inactive: 0.115 | inactive: 0.055 | inactive: -0.002 | inactive: 0.048 | inactive: -0.06 | inactive: 0.041 | inactive: -0.026
5 | SYAP1 (UniProt Q96A49) | inactive: 0.141 | inactive: 0.015 | inactive: 0.038 | inactive: 0.052 | inactive: -0.001 | inactive: 0.153 | inactive: 0.001 | inactive: 0.161 | inactive: 0.006 | inactive: -0.102
6 | SULT1A1 (UniProt P50225) | inactive: 0.023 | inactive: -0.052 | inactive: -0.074 | inactive: -0.014 | inactive: -0.009 | inactive: -0.023 | inactive: -0.002 | inactive: -0.037 | inactive: -0.025 | inactive: 0.046
7 | STXBP5 (UniProt Q5T5C0) | inactive: -0.008 | inactive: -0.01 | inactive: -0.009 | inactive: -0.05 | inactive: -0.017 | inactive: 0.065 | inactive: -0.016 | inactive: 0.056 | inactive: -0.013 | inactive: -0.008
8 | STYX (UniProt Q8WUJ0) | inactive: -0.019 | inactive: -0.073 | inactive: -0.039 | inactive: 0.052 | inactive: 0.074 | inactive: -0.099 | inactive: -0.031 | inactive: 0.078 | inactive: 0.078 | inactive: -0.093
9 | TACC1 (UniProt O75410) | inactive: 0.008 | inactive: 0.016 | inactive: -0.002 | inactive: -0.001 | inactive: -0.032 | inactive: -0.025 | inactive: 0.009 | inactive: -0.013 | inactive: 0.075 | inactive: 0.111
10 | SYNJ1 (UniProt O43426) | inactive: 0.029 | inactive: -0.054 | inactive: -0.02 | inactive: -0.065 | inactive: -0.003 | inactive: 0.028 | inactive: 0.049 | inactive: 0.004 | inactive: -0.051 | inactive: -0.041
11 | STOML2 (UniProt Q9UJZ1) | inactive: 0.013 | inactive: -0.021 | inactive: 0.028 | inactive: 0.089 | inactive: 0.035 | inactive: 0.015 | inactive: 0.012 | inactive: -0.032 | inactive: 0.033 | inactive: -0.023
12 | SUGT1 (UniProt Q9Y2Z0) | inactive: 0.026 | inactive: -0.008 | inactive: 0.049 | inactive: 0.16 | inactive: 0.005 | inactive: -0.024 | inactive: -0.015 | inactive: -0.011 | inactive: 0.032 | inactive: -0.094
13 | SZRD1 (UniProt Q7Z422) | inactive: -0.004 | inactive: -0.012 | inactive: 0.006 | inactive: -0.062 | inactive: -0.098 | inactive: 0.054 | inactive: 0.017 | inactive: 0.005 | inactive: 0.013 | inactive: 0.015
14 | SUGP2 (UniProt Q8IX01) | inactive: 0 | inactive: -0.028 | inactive: -0.01 | inactive: -0.056 | inactive: -0.005 | inactive: -0.019 | inactive: 0.001 | inactive: -0.134 | inactive: -0.167 | inactive: 0.089
15 | SUGT1 isoform 2 (UniProt Q9Y2Z0) | inactive: -0.087 | inactive: 0.054 | inactive: 0.11 |  | inactive: 0.07 |  | inactive: -0.033 | inactive: -0.102 | inactive: -0.037 | 
16 | TAB2 (UniProt Q9NYJ8) | inactive: 0.02 | inactive: 0.027 | inactive: -0.077 | inactive: 0.098 | inactive: -0.014 | inactive: 0.002 | inactive: -0.019 | inactive: -0.069 | inactive: -0.002 | inactive: 0.093

Complete entries, quoted from the list. Values in the order: log2 fold change (lapatinib) | log2 fold change (pictilisib) | log2 fold change (crizotinib) | log2 fold change [1] | log2 fold change (duvelisib) | log2 fold change (gandotinib) | log2 fold change (tozasertib) | log2 fold change (doramapimod) | log2 fold change (bafetinib) | log2 fold change [2]
SULT1A1 (UniProt P50225) as listed: inactive: 0.023 | inactive: -0.052 | inactive: -0.074 | inactive: -0.014 | inactive: -0.009 | inactive: -0.023 | inactive: -0.002 | inactive: -0.037 | inactive: -0.025 | inactive: 0.046
TACC1 (UniProt O75410) as listed: inactive: 0.008 | inactive: 0.016 | inactive: -0.002 | inactive: -0.001 | inactive: -0.032 | inactive: -0.025 | inactive: 0.009 | inactive: -0.013 | inactive: 0.075 | inactive: 0.111

The list continues.

Row | Target | log2 fold change (lapatinib) | log2 fold change (pictilisib) | log2 fold change (crizotinib) | log2 fold change [1] | log2 fold change (duvelisib) | log2 fold change (gandotinib) | log2 fold change (tozasertib) | log2 fold change (doramapimod) | log2 fold change (bafetinib) | log2 fold change [2]
17 | STX6 (UniProt O43752) | inactive: 0.043 | inactive: -0.005 | inactive: -0.044 | inactive: -0.025 | inactive: -0.025 | inactive: 0.091 | inactive: 0.015 | inactive: 0.01 | inactive: -0.016 | inactive: 0
18 | TAF1B (UniProt Q53T94) | inactive: 0.012 | inactive: 0.062 | inactive: -0.036 | inactive: -0.058 | inactive: 0.34 | inactive: -0.157 | inactive: 0.304 | inactive: 0.017 | inactive: -0.004 | inactive: 0.134
19 | STMN4 isoform 2 (UniProt Q9H169) | inactive: -0.085 | inactive: 0.015 | inactive: 0.15 | inactive: -0.004 | inactive: 0.021 | inactive: -0.057 | inactive: -0.014 | inactive: 0 | inactive: -0.052 | inactive: -0.056
20 | TAF12 (UniProt Q16514) | inactive: 0.037 | inactive: 0.023 | inactive: -0.001 | inactive: -0.043 | inactive: 0.018 | inactive: 0.031 | inactive: -0.031 | inactive: 0.065 | inactive: 0.036 | inactive: -0.03
21 | STXBP4 (UniProt Q6ZWJ1) | inactive: 0.032 | inactive: -0.033 | inactive: 0 | inactive: 0.033 | inactive: -0.025 | inactive: 0.007 | inactive: 0.025 | inactive: 0.023 | inactive: 0.014 | inactive: -0.006
22 | SUPV3L1 (UniProt Q8IYB8) | inactive: -0.025 | inactive: -0.031 | inactive: -0.015 | inactive: -0.027 | inactive: -0.004 | inactive: -0.034 | inactive: -0.02 | inactive: 0.018 | inactive: 0.002 | inactive: 0.022
23 | STMN3 (UniProt Q9NZ72) | inactive: -0.017 | inactive: -0.08 | inactive: 0.009 |  | inactive: -0.023 |  | inactive: -0.023 | inactive: -0.003 | inactive: 0.041 | 
24 | SUPT5H isoform 2 (UniProt O00267) | inactive: 0.081 | inactive: -0.106 | inactive: -0.137 |  | inactive: 0.012 |  |  | inactive: -0.022 | inactive: 0.115 | 
25 | SWI5 (UniProt Q1ZZU3) | inactive: 0.09 | inactive: -0.059 | inactive: 0.027 | inactive: 0.026 | inactive: 0.043 | inactive: 0.123 | inactive: 0.014 | inactive: 0.056 | inactive: -0.056 | inactive: -0.082
26 | SYNRG (UniProt Q9UMZ2) | inactive: 0.022 | inactive: -0.016 | inactive: 0.016 | inactive: 0.043 | inactive: -0.041 | inactive: -0.037 | inactive: 0.024 | inactive: -0.023 | inactive: -0.032 | inactive: -0.044
27 | STX4 (UniProt Q12846) | inactive: -0.006 | inactive: -0.004 | inactive: 0.025 | inactive: 0.091 | inactive: 0.009 | inactive: -0.019 | inactive: 0.071 | inactive: -0.011 | inactive: 0.038 | inactive: -0.041
28 | STK11 (UniProt Q15831) | inactive: 0.095 | inactive: -0.016 | inactive: -0.048 | inactive: -0.009 | inactive: 0.054 | inactive: -0.016 | inactive: -0.062 | inactive: 0.028 | inactive: -0.101 | inactive: 0.012
29 | TAF2 (UniProt Q6P1X5) | inactive: -0.002 | inactive: -0.123 | inactive: -0.051 | inactive: 0.042 | inactive: -0.008 | inactive: -0.067 | inactive: 0.003 | inactive: 0.013 | inactive: -0.028 | inactive: 0.036
30 | SUMO2 (UniProt P61956) | inactive: 0.046 | inactive: 0.05 | inactive: -0.038 | inactive: 0.042 | inactive: 0.175 | inactive: 0.015 | inactive: 0.102 | inactive: 0.025 | inactive: 0.034 | inactive: 0.025
31 | SUPT6H (UniProt Q7KZ85) | inactive: -0.021 | inactive: -0.045 | inactive: -0.035 | inactive: -0.064 | inactive: -0.041 | inactive: 0.066 | inactive: -0.046 | inactive: 0.052 | inactive: -0.037 | inactive: 0.056
